No constants are given. Whether binding was seen depends on the method and setting. Some results given as binding are weak or reduced against the parent protein; the word gives no strength. Values belong to the binder of their own block, whether it stands above or below them.
Columns and labels:
PBP1B^Δ158–160 = molecular target: T1, PBP1B^Δ158–160 (E. coli, UniProt P02919 46-844, Δ158–160); assay: condition: 3.9 nM to 2 μM or 78 nM to 40 μM injected (which range is not told); SPR; PBP1B versions immobilised to the chip surface; CpoB versions injected from either 3.9 nM to 2 μM or from 78 nM to 40 μM; apparent KD by non-linear regression, at least three independent experiments; both purified
T1 construct: PBP1B, E. coli, residues 46-844 with residues 158-160 of Loop 1 removed, made by mutagenesis of pDML924; also called Loop 1 truncation; source: E. coli BL21(DE3), purified (membrane extract, HisTrap, thrombin, HiTrap SP ion exchange)
T1 sequence (looked up): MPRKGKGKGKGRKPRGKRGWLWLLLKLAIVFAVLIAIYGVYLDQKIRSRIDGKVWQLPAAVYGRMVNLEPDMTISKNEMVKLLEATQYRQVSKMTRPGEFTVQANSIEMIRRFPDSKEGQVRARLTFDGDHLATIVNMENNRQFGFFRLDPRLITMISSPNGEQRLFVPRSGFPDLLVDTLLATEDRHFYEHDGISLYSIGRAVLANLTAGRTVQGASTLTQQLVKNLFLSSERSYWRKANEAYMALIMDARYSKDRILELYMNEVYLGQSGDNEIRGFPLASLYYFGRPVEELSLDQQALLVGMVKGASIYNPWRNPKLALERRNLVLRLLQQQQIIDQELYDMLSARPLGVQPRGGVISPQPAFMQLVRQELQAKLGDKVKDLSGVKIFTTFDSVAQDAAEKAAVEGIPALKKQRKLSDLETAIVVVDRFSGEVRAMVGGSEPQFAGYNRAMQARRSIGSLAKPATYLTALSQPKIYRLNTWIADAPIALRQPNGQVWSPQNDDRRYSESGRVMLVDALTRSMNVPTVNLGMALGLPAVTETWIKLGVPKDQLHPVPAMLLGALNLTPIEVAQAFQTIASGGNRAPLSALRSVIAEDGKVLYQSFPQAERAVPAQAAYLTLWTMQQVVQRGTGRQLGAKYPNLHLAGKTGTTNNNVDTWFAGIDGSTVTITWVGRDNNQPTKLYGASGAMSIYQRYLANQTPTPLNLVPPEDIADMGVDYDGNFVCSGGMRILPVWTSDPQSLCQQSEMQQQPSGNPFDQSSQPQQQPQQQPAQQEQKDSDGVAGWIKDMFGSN

[1] = molecular target: T2, UB2H domain of PBP1B (PBP1B^108–200) (E. coli) (UniProt P02919); assay: NMR structure; 2 mM [13C,15N]-UB2H with 1.2 molar ratio of unlabelled LpoB, 10 mM Tris/HCl, 200 mM NaCl, pH 7.5, 10% D2O, 20°C; structure of UB2H in the complex; no intermolecular distance detectable; both purified
T2 sequence: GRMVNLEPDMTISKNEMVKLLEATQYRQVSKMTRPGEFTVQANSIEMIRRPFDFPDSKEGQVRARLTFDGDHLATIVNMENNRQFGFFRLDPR

[2] = molecular target: T2, UB2H domain of PBP1B (PBP1B^108–200) (E. coli); assay: NMR titration; chemical shift perturbations on the amide groups of labelled UB2H with unlabelled LpoB; 2D HN-HSQC at 20°C; both purified
[3] = molecular target: T3, PBP1B (wild type, PBP1B^46-844) (E. coli) (UniProt P02919); assay: condition: 3.9 nM to 2 μM or 78 nM to 40 μM injected (which range is not told); SPR; PBP1B versions immobilised to the chip surface; CpoB versions injected from either 3.9 nM to 2 μM or from 78 nM to 40 μM; apparent KD by non-linear regression, at least three independent experiments; both purified
T3 sequence: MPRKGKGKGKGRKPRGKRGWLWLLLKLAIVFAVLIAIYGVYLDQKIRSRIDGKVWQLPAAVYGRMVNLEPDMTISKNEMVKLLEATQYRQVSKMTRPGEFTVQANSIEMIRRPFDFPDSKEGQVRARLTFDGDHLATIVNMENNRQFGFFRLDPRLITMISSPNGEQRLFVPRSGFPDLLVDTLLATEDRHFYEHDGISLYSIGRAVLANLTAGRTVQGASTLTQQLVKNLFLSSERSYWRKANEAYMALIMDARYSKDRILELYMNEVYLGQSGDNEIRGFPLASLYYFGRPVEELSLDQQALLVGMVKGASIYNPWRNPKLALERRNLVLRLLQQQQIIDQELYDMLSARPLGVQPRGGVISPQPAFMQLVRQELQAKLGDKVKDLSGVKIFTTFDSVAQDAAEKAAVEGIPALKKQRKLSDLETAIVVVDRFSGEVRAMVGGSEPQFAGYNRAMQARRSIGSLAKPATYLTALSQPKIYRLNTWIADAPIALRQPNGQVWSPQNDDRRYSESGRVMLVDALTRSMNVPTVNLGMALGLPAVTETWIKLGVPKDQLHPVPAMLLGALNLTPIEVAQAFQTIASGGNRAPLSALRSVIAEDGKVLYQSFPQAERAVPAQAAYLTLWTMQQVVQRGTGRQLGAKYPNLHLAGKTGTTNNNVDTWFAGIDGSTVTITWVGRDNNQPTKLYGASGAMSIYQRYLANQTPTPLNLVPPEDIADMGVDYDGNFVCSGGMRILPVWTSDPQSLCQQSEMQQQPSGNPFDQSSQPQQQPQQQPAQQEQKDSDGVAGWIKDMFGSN

- binding (PBP1B^Δ158–160): no binding
B1: CpoB (full length) (natural protein, E. coli, UniProt P45955 27-263, looked up)
chain: QAPISSVGSGSVEDRVTQLERISNAHSQLLTQLQQQLSDNQSDIDSLRGQIQENQYQLNQVVERQKQILLQIDSLSSGGAAAQSTSGDQSGAAASTTPTADAGTANAGAPVKSGNANTDYNAAIALVQDKSRQDDAMVAFQNFIKNYPDSTYLPNANYWLGQLNYNKGKKDDAAYYFASVVKNYPKSPKAADAMFKVGVIMQDKGDTAKAKAVYQQVISKYPGTDGAKQAQKRLNAM
notes: CpoB, E. coli; The coiled-coil construct begins at residue 27, so the purified 'full length' protein may lack the signal peptide (surmise); source: E. coli BL21(DE3), purified (HisTrap, Superdex 200), as in Gray et al. 2015

- binding [1]: binds
- binding [2]: binds
B2: LpoB (natural protein, E. coli)
chain: VGQREPAPVEEVKPAPEQPAEPQQPVPTVPSVPTIPQQPGPIEHEDQTAPPAPHIRHYDWNGAMQPMVSKMLGADGVTAGSVLLVDSVNNRTNGSLNAAEATETLRNALANNGKFTLVSAQQLSMAKQQLGLSPQDSLGTRSKAIGIARNVGAHYVLYSSASGNVNAPTLQMQLMLVQTGEIIWSGKGAVSQQ
notes: LpoB, E. coli; also called lipoprotein LpoB; source: E. coli BL21(DE3), purified (HisTrap, Superdex 200), as in Egan et al. 2014

- binding [3]: no binding
B3: CpoB^CC (CpoB^27-109), N-terminal coiled-coil domain of CpoB (domain or fragment, UniProt P45955 27-109)
chain: QAPISSVGSGSVEDRVTQLERISNAHSQLLTQLQQQLSDNQSDIDSLRGQIQENQYQLNQVVERQKQILLQIDSLSSGGAAAQ
